# For at least one compound, name, drawing or mass did not settle the structure.
# Experiments:
# [1] = test system: PI3K-Akt signaling pathway; assay: Akt phosphorylation in CD4^+ T cells (Western blotting); assay type: cell-based, human; conditions: pre-treatment 30 min; LY294002 5 μM, GSK690693 1 μM
# Procedure: Five independent experiments were carried out. […] After 2 days, hcMSCs were washed three times with cold phosphate-buffered saline (PBS) containing 0.05 mM ethylenediamine tetraacetic acid (EDTA) to detach lymphocytes from hcMSCs. Then, hcMSCs were trypsinized and washed twice with cold PBS-EDTA solution and stained with phycoerythrin (PE)-conjugated ICOSL antibody (BioLegend) to analyze ICOSL expression.
# More particularly, CD4^+ T cells were pre-treated with LY294002 (5 μM) and GSK690693 (1 μM) for 30 min. […] Total Akt was determined.
# CD4^+ T cells = assay: Effect of PI3K-Akt inhibitors on rhICOSL- or hcMSC-induced Treg induction; assay type: cell-based, human; conditions: 2 days; LY294002 5 μM, GSK690693 1 μM
# Procedure: Akt inhibitor […] (Calbiochem, San Diego, Calif., USA) was used at a concentration of 1 μM and LY294002 (Cell Signaling Technology, Danvers, Mass., USA) was used at concentration of 5 to 10 μM. […] Total Akt was determined. […] The results are illustrated in FIG. 14.
compound,measurement,setting,value
O=c1cc(N2CCOCC2)oc2c(-c3ccccc3)cccc12 [LY294002],rhICOSL-induced Akt phosphorylation,[1],marked decrease in Akt phosphorylation
same,rhICOSL or hcMSC-induced Tregs,CD4^+ T cells,decreased
